From the RNAGym collection of RNA variant scans (doi:10.1126/science.aae0568)
This sample is rich in variants without activity.

B1: tRNA (parent)
chain: GUUCCGUUGGCGUAAUGGUAACGCGUCUCCCUCCUAAGGAGAAGACUGCGGGUUCGAGUCCCGUACGGAACG

Variants of: B1
Test: yeast fitness relative to wild type (ratio to wild type); higher = fitter; tRNA-Arg(CCU), competitive growth, 37 C, YPD
Procedure, shortened: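 A pool of Saccharomyces cerevisiae strains, each with a tRNA-Arg(CCU) gene variant at the native genomic locus, was competed in YPD at 37°C for 24 hours across six parallel replicates. The variants had been chemically synthesised at a 3% per-site mutation rate over 69 sites, and gene amplicons before and after competition were read by 100-nucleotide paired-end sequencing. Darwinian fitness relative to wild type rested on changes in genotype frequencies. Genotypes required ≥ 100 starting reads, and estimates < 0.5 were set to 0.5.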

Variant	yeast fitness
C27U A40C G58A G67A A70C	≤ 0.5
U13A C33U G51U G52C A65G	≤ 0.5
C5U C33U A43G G48C	≤ 0.5
C11G A14G G39C C55U A70G	≤ 0.5
A14G G18C G50C C66U	≤ 0.5
C27A A57U C60A	≤ 0.5
C11A A14G A43C A57G G58A U59C A70G	≤ 0.5
C4G G17C A37U A69U	≤ 0.5
U3G C30G U59G C66A	≤ 0.5
G25A A36C G44U	≤ 0.5
A37C C46U C62A A69U	≤ 0.5
C4G A21U C31A C34U A69C	≤ 0.5
C4A C24G C33G A36C A37C A42C A65U	≤ 0.5
C11U A21G C29G	≤ 0.5
C11A U13C C27A G41C	≤ 0.5
C33G C49G C55U	≤ 0.5
A15C C61U A69U	0.571
U64C A69C	0.983
C46G C62G C66G	≤ 0.5
G9C A21U C27U A40U C61A G68A	≤ 0.5
U28A A65U	0.642
U32G C33G A36G A70U	≤ 0.5
G10C C34G A40G C46G C49A U59C	≤ 0.5
C34A A40U U53A A69C	≤ 0.5

Variant	yeast fitness
G10A G17A A45U U47A	≤ 0.5
C4A C22G C29U C49A C55U	≤ 0.5
A14U C27U C55U	≤ 0.5
C5U U35G U47A G48A	≤ 0.5
G23A A36U G39C A65G C66U	≤ 0.5
G25A C55G G58A	≤ 0.5
U2G C33A C49G	≤ 0.5
A14G A42C G56C G67A	≤ 0.5
C4U U7A A57C	≤ 0.5
C5G G17C C29U	≤ 0.5
A42U C49U C66G	≤ 0.5
A14U G44A C62G	≤ 0.5
G38A G44C U47G	≤ 0.5
C27G A37U G48A	≤ 0.5
G6A G9C A20U G51A	≤ 0.5
C22G A40U C46A	≤ 0.5
A36C U47A G48C G51C G68C	≤ 0.5
C4G G9A C34U U64G	≤ 0.5
A21U C34G U53A G58A G63A	≤ 0.5
G48C U59G	0.722
A15G G25A A57U A65U	≤ 0.5
G9U C27A A70G	≤ 0.5
C24A U53G A57C A69U	≤ 0.5
C4U C34G C46U G48C U54G	≤ 0.5

Variant	yeast fitness
U2A G25C U26G C60U C62G U64A A69U	≤ 0.5
C4U G23A G56C G68A	≤ 0.5
A43G U53G C55A G56C A57G G58A U59G C60U A65C	≤ 0.5
A15U A45U C46A G63A	≤ 0.5
G12A C61U U64A A69G	≤ 0.5
U8C C11G C66G	≤ 0.5
U13G A15C U59G	≤ 0.5
G18C C30U A45G	≤ 0.5
C4U A14U	0.611
C34A A40G C66A	≤ 0.5
C31U C60G A70G	0.675
U7C C34G U35A G63C	≤ 0.5
C5U U54A A57U C60G C61G	≤ 0.5
G25A A36U C46A	≤ 0.5
G6C U13C C46A	0.627
C11A G18A G58A	≤ 0.5
C22G A45U G48C C49G C60U	≤ 0.5
U19A C27G C31U	≤ 0.5
A36U A43U	0.638
G10A C60U G67A	≤ 0.5
G12C C27G A37G G58C	≤ 0.5
C29U C31A C55U A57C A70G	≤ 0.5
U7A C22U G23A C46A C61G	≤ 0.5
C31G A37C G50A	≤ 0.5

Variant	yeast fitness
C11U A14G A65U G68A	0.617
C11A A14G A36U C66A	≤ 0.5
C60U C61A G67C	≤ 0.5
U26C A57U G68A	≤ 0.5
C4G G51C U54A A70U	≤ 0.5
G12C A21U C34U A42U U64A G68U	≤ 0.5
U26C U28A C61A	≤ 0.5
C30U A36G C61G	≤ 0.5
G6A G17A C60G G63A A65U C66U	≤ 0.5
U7G U32G A37U G50C	≤ 0.5
C22U C60G A70G	≤ 0.5
C5U U19C U26A C55U	≤ 0.5
C5U G6C G18A A21G G25A G51C	≤ 0.5
C33U G44A C61U	0.675
C5U A43U G44A C46A	≤ 0.5
C5U G17C U26G G63A	≤ 0.5
G25A C49A G68C	≤ 0.5
C5A C22G C27G A36U A40C A57U C66U	≤ 0.5
U2G C4U C22U C30G C55U	≤ 0.5
A14C C24U U26A G52C	≤ 0.5
G9A U16G U19C G25A U28C U54G A70C	≤ 0.5
U3A C11G G12A C22U	≤ 0.5
C34U A40G C46A G51A	≤ 0.5
U59A C60G	0.655

Variant	yeast fitness
C31U A57C U59G U64G	≤ 0.5
G9C G18A C22G C29U U32G	≤ 0.5
U3A C4G C62U A70C	0.754
A15C C31A A37U	≤ 0.5
U19C C31A G50C A70U	≤ 0.5
C11U C33G G38C	≤ 0.5
A36U C62U A69C	≤ 0.5
C27A G38U A45G G48C	≤ 0.5
A15G G25A U32G A40G C60G	0.501
U7G C34G A36C C62G G68C	≤ 0.5
C4G C49A C66U	≤ 0.5
U2C G44A	0.86
G6C U16A C27G U59A	≤ 0.5
C11A A21G C22G C29G C62U	≤ 0.5
C5G U8C C46G	≤ 0.5
U7A A15G G23A G63C	0.557
C5A C11G A14C A15C A40C A70C	≤ 0.5
C5U C34G C55G	≤ 0.5
U26A C30A A36U G52A	≤ 0.5
G25C C29G A43G C46U C49G	≤ 0.5
U13C G48A U53C C60A	≤ 0.5
G17A A37C A69C	0.648
C4A C29U C31U U54G A65U G67A	≤ 0.5
G10A C29G G67U	≤ 0.5

Variant	yeast fitness
U28G U32A G38C A65C G67C	≤ 0.5
C34G C49G C61U	≤ 0.5
U32A A37G C60A A70G	≤ 0.5
C5A U8C C33U	≤ 0.5
C22U C55G A57C	≤ 0.5
A14G C49G A69U	0.566
C24U A37G G63C C66U A70C	≤ 0.5
C11U U32A C33A C34U	≤ 0.5
G51C U54A A69U	≤ 0.5
U2G G6A C31G G51A G68C	≤ 0.5
U32A C34U G58A	≤ 0.5
A15U C22G G58C G68A	≤ 0.5
G12C A69C A70U	0.688
C5U A14G U16A C30U G63A A70G	≤ 0.5
G44A C55A G58C	≤ 0.5
C29U A36U G38A C60A	≤ 0.5
U7C C24U C55U C60G	≤ 0.5
U8G U26A A43C C55G C60A	≤ 0.5
C33U G63A C66U	≤ 0.5
G10A C33U	0.592
C4A A36U A37C G38A U47C A70U	≤ 0.5
G10C A14U U19A C22U A36G	≤ 0.5
U35G A57G A65U	≤ 0.5
U26C A42U	1.01

Variant	yeast fitness
G18A C31A G44A	0.534
A14U A20C C24G C55U A69U	≤ 0.5
C11A C34U A42G	≤ 0.5
G6A C11G C34G A42G	≤ 0.5
U2A A21G G39A A65G	≤ 0.5
U28C C34A C49G G51C U53C	≤ 0.5
G10A U59C	0.721
C5A A20G A37G	≤ 0.5
A36U G44A C46U A57G	≤ 0.5
A15U U28A C46A	0.507
U3A U8G G39C C60G A70U	≤ 0.5
U16G A20G C33G C55G	≤ 0.5
G23C U28A G44C G56A C62G	≤ 0.5
C5A C29U A43C A69U	≤ 0.5
U2A G67U	0.824
G17C G38A G51A C62G G63C C66G A69U	≤ 0.5
U35G A37G	≤ 0.5
U16A A36G G51A	≤ 0.5
C11U C33G G48C	≤ 0.5
U2C C11G C22G G56A G63A	≤ 0.5
U35A U47G	≤ 0.5
U32G A69C	0.848
U8C C11G	0.686
